# Data taken from patent publication US20250249092A1 (TORAY INDUSTRIES, published 2025).
# Changes are numbered by the printed parent chain. These are yes or no findings as the source states them, for the method shown. Some binding calls cover weakened binding; strength is not graded here.
# T1: CAPRIN-1 protein on the cell membrane surface of cancer cells (UniProt Q14444)
# T1 sequence (looked up): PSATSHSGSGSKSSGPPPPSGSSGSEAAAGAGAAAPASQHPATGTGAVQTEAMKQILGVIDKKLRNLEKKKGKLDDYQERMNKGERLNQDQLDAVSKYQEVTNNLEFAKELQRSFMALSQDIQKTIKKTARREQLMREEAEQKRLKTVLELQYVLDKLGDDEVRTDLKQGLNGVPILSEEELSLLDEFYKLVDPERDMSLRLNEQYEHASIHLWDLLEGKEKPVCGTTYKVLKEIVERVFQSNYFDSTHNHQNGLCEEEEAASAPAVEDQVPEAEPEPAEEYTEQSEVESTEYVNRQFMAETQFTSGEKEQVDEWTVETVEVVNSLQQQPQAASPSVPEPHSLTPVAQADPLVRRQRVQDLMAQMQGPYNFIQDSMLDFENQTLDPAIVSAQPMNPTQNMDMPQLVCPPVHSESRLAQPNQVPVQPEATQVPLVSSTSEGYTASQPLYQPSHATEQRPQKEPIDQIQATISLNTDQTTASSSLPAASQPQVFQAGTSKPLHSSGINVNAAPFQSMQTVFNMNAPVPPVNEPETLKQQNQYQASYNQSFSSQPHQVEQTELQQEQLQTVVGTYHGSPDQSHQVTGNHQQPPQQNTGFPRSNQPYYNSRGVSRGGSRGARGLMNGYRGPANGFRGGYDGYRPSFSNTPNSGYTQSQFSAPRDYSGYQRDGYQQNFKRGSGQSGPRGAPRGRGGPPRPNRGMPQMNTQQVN
# T2: CAPRIN-1 protein (UniProt Q14444)
# T2 sequence (looked up): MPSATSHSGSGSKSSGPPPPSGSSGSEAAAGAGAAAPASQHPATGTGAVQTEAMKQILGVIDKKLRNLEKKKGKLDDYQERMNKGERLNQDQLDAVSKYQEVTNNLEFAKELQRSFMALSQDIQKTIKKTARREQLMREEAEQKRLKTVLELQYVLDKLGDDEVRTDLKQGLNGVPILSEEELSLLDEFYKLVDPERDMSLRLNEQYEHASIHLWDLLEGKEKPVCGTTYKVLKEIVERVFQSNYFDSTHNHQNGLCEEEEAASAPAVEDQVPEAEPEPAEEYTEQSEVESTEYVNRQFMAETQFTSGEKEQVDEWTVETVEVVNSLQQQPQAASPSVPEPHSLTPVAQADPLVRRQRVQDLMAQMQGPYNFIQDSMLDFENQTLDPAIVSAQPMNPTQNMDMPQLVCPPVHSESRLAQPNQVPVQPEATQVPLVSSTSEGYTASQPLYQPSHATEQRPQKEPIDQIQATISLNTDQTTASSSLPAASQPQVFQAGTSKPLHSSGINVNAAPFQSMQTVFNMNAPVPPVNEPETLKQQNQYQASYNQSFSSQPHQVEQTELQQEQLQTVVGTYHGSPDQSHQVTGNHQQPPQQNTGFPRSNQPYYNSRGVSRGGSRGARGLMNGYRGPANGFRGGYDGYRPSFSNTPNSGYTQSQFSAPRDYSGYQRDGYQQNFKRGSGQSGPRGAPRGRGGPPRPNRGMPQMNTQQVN
# B1: Conjugate 49 (antibody, human IgG1, V domains shown)
# VH: GAELVRSGASVKMSCKASGYSFTDYNMYWVKQTPGQGLEWIGYIYPGNGGTNYNQKFKGKATLTADTSSSTAYMQISSLTSEDSAVYFCARDYDDGGYAMDYWGQGTTVTVSS
# VL: DIQMTQSPASLSASVGETVTITCRASGNIHNYLTWYQQKQGKSPQLLVYNAKTLADGVPSRFSGSGSGTQYSLKINRLQPEDFGSYYCQHFWNIPWTFGGGTKLNSR
# B2: Conjugate 50 (antibody, human IgG1, V domains shown)
# VH: DAELVKPGASVKISCKASGYTFTDHSIHWVQQKPEQGLEWIGYISPGNGNIKYNEKFKGKATLTADKSSSTAYMQLNSLTSEDSAVYFCKRSLGRGGPYYFDYWGQGTTVTVSS
# VL: DIVLTQAAPSLPVTPGESVSISCRSSKSLLHSNGNTYLYWFLQRPGQSPQLLIYRMSNLASGVPDRFSGSGSGTAFTLRISRVEAEDVGVYYCMQHREYPVTFGSGPN
# B3: Conjugate 55 (antibody, human IgG1, V domains shown)
# VH: EVQLHQFGAELVKPGASVKISCKASGYTFTDYNMDWVKQSHGKSLEWIGDINPNYDSTSYNQKFKGKATLTVDKSSSTAYMELRSLTSEDTAVYYCARSRSYDYEGFAYWGQGTLVTVSA
# VL: DIQMTQSPASLSASVGETVTITCRASGNIHNYLAWYQQKQGKSPQLLVYNAKTLADGVPSRFSGSGSGTQYSLKINSLQPEDFGSYYCQHFWSTLTFGAGTKLELKR
# B4: Conjugate 66 (antibody, human IgG1, V domains shown)
# VH: GPDLVKPGASVKISCKASGYSFTAYYMHWVKQSHGKSLEWIGRVNPNNGGTTYNQKFKGKAILTVDKSSSTAYMELRSLTFEDSAVYYCARRIYYGYFDYWGQGTTVTVSS
# VL: AFFAVSLGQRATISCKASQSVDYDGDSYMNWYQQKPGQPPKLLIYVASNLESGVPARFSGSGSGTDFTLNIHPVEEEDAATYYCQQSNEDPYTFGGGTKLEIKQ
# B5: Conjugate 72 (antibody, human IgG1, V domains shown)
# VH: EVQLVESGGGLVQPGGSLRLSCAASGFSLSSHSLGWVRQAPGKGLEWIGDIRSGGSAYYANWAKGRFTISRDNSKNTLYLQMNSLRAEDTAVYYCTRTNGPSDLTNRLDLWGQGTLVTVSS
# VL: QVLTQSPSSLSASVGDRVTINCQASQSLYNNENLAWFQQKPGKVPKRLIYGASTLASGVSSRFSGSGSGTEFTLTISSLQCEDFAIYYCLGEFSCGSADCFAFGGGTKVEIK
# B6: Conjugate 73 (antibody, human IgG1, V domains shown)
# VH: B5 VH with Y94F
# VL: B5 VL
# B7: mouse chimeric antibody #2 (antibody, V domains shown)
# VH: B5 VH with V2Q, Q3S
# VL: B5 VL
# B8: mouse chimeric antibody #3 (antibody, V domains shown)
# VH: AVTLDESGGGLQTPGGGLSLVCKASGFTFSSFDMGWVRQAPGKGLEFVAQINDAGSRTWYATAVKGRATISRDNGQTTVRLQLNNLRAEDTGTYYCTRGSGYVGAGAIDAWGHGTEVIVS
# VL: AALTQPSSVSANPGETVKITCSGGSGYYGWYQQQKSPGSAPVTVIYQNDKRPSDIPSRFSGSGSGSTNTLTITGVQAEDEAVYFCGRYDSTDSGIFGAGTTLTVL
# B9: mouse chimeric antibody #4 (antibody, V domains shown)
# VH: QSLEESGGDLVKPGASLTLTCTASGFSFSGSYYMSWVRQAPGKGLEWIAYIYIGDGVTAYANWAKGRFTISKASSTTVTLQMTSLTAADTATYFCARGNKLWGPGTLVTVSS
# VL: DVVMTQTPASVEAAVGGTVTIKCQASQSISSYLAWYQQKPGQPPKRLIYDASNLDSGVPSRFKGSGSGTDFTITISDLECADAATYYCQCTAVSSATIYGNAFGGGTEVVVK
# B10: Mouse chimeric antibody #5 (antibody, V domains shown)
# VH: AVTLDESGGGLQTPGGALSLVCKASGFTFSGYDMLWVRQAPGKGLEWVAGIGSTGGGTDYGAAVKGRATISRDNGQSTVRLQLNNLRAEDTATYYCAKVAGGCNSGYCRDSPGSIDAWGHGTEVIVS
# VL: AVTQQPASVSANPGETVKITCSGGGSRNYYGWYQQKSPGSVPVTVIYYDDQRPSNIPSRFSGALSGSTSTLTITGVQADDEAVYFCGSADSNTYEGSFGAGTTLTVL
# B11: Mouse chimeric antibody #9 (antibody, V domains shown)
# VH: B1 VH
# VL: B1 VL
# B12: Mouse chimeric antibody #10 (antibody, V domains shown)
# VH: B2 VH
# VL: B2 VL
# B13: Mouse chimeric antibody #15 (antibody, V domains shown)
# VH: B3 VH
# VL: B3 VL
# B14: Mouse chimeric antibody #26 (antibody, V domains shown)
# VH: B4 VH
# VL: B4 VL
# B15: Mouse chimeric antibody #32 (antibody, V domains shown)
# VH: B5 VH
# VL: B5 VL
# B16: Mouse chimeric antibody #33 (antibody, V domains shown)
# VH: B5 VH with Y94F
# VL: B5 VL
# B17: Mouse chimeric antibody #34 (antibody, V domains shown)
# VH: B5 VH
# VL: EQVLTQSPSSLSASVGDRVTINCQASQSLYNNENLAWFQQKPGKVPKRLIYGASTLASGVSSRFSGSGSGTEFTLTISNLQPEDFAIYYCLGEFSCGSADCFAFGGGTKVEIK
# B18: Mouse chimeric antibody #35 (antibody, V domains shown)
# VH: B5 VH with Y94F
# VL: B17 VL with Q2I, I87T
# B19: Mouse chimeric antibody #36 (antibody, V domains shown)
# VH: B5 VH
# VL: B17 VL with Q2I, I87T
# B20: Mouse chimeric antibody #37 (antibody, V domains shown)
# VH: B5 VH with Y94F
# VL: B17 VL
# Target: T1, CAPRIN-1 protein on the cell membrane surface of cancer cells
# Experiment: flow cytometry
row,Binder,binding
1,B1,binds
2,B2,binds
3,B3,binds
4,B4,binds
5,B5,binds
6,B6,binds
7,B7,binds
8,B8,binds
9,B9,binds
10,B10,binds
11,B11,binds
12,B12,binds
13,B13,binds
14,B14,binds
15,B15,binds
16,B16,binds
17,B17,binds
18,B18,binds
19,B19,binds
20,B20,binds

# Target: T2, CAPRIN-1 protein
# Experiment: ELISA
row,Binder,binding
1,B1,binds
2,B2,binds
3,B3,binds
4,B4,binds
5,B5,binds
6,B6,binds
